# In all, about 400,000 compounds went through this assay and about 13,000 (3.2%) were called active. This list was built around the results that the source calls inconclusive (neither active nor inactive); the mix of calls is not that of the screen. The call rests on the fitted dose curve; in most records, active means well fitted cell-killing curve with a large enough effect; inconclusive means small, poorly fitted or top-dose-only effect, or effect the other way; inactive means flat fitted curve, though single readings scatter. A potency beside an inconclusive call is a rough fit, not a confirmed value.
# Assay: qHTS assay for MDR1-selective chemotherapeutics: Primary screen using the drug-selected MDR subline cells KB-V1; further: nearly all actives have a fitted effect of over 60% in size
# Settings: KB-V1 MDR cells viability, CellTiter-Glo, 72 h; activity change, negative = cytotoxicity: at 46.1 µM (top of the series)
# Procedure, shortened: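 KB-V1 cells (P-gp-expressing MDR subline of KB-3-1) in phenol-red-free DMEM with 10% FBS were exposed to library compounds over a concentration series for 72 h at 37 degrees C. Viability read by CellTiter-Glo luminescence; concentration-effect curves fitted after normalization.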
# On the % scale 0 is the no-effect control and ±100 the full control effect; potency means the concentration at half of the fitted maximal effect.
Compound,Potency,"activity change, negative = cytotoxicity"
O=C(Cc1ccc(Cl)cc1)Nc1ccc(SC(F)F)cc1,active: 20.6 µM,–
CC1=C(C(=O)OCC2CCCO2)C(c2ccccc2Cl)NC(=O)N1 (centres undefined),inactive,–
COc1ccc(-c2noc(=O)n2Cc2cc(C)ccc2C)cc1,"inconclusive: 8.2 µM [cytotoxic, partial curve, poor fit]",–
CCc1ccc(NC(=O)Cn2c(SCc3ccc(C)cc3)nc3ccncc32)cc1,inactive,–
COc1ccc(C(=O)CSc2cc(C)nc(SCC(=O)c3ccc(C)cc3)n2)cc1,inactive,–
Cc1ccc2c(=O)cc(C(=O)N(Cc3ccc(C(C)(C)C)cc3)C3CCS(=O)(=O)C3)oc2c1 (centres undefined),"inconclusive: 32.6 µM [cytotoxic, single point]",–
Cc1ccc(N(CC(=O)NCCSCc2ccco2)S(=O)(=O)c2ccc(C)cc2)cc1,"inconclusive: 23.1 µM [cytotoxic, single point]",–
COc1ccc(NC(=O)C(C)N(C)Cc2ccc3ccccc3c2)cc1 (centres undefined),inactive,–
CCOc1ccccc1NC(=O)c1cnc(NS(=O)(=O)c2ccccc2)nc1,"inconclusive: 2.59 µM [cytotoxic, full curve]",–
CN1CCN(c2ccccc2NC(=O)COc2ccccc2)CC1,"inconclusive: 7.31 µM [cytotoxic, partial curve, poor fit]",–
Cc1ccn(CC(=O)N2CCCC(C(=O)c3cccc4ccccc34)C2)n1 (centres undefined),"inconclusive: 23.1 µM [cytotoxic, single point]",–
CCc1nnc(NC(=O)CSc2nnc(-c3ccccc3O)n2-c2ccc(C)cc2C)s1,active: 18.4 µM,–
Cc1cc(S(=O)(=O)NC2CCCCC2)ccc1OCC(=O)NCc1ccccn1,active: 18.4 µM,–
COc1cc(NC(=O)c2ccc(C)cc2C)ccc1NC(=O)c1cc2ccccc2o1,inactive,–
Cc1ccc(-n2ncc(C(=O)NCc3ccc4c(c3)OCO4)c2C2CCN(C(=O)OC(C)(C)C)CC2)c(C)c1,inactive,–
CCOC(=O)C1[C@H]2C(=O)N(C(C)c3ccc(OC)cc3)C[C@]23C=C[C@H]1O3 (some centres undefined),"inconclusive: 16.4 µM [cytotoxic, single point]",–
COc1cc(C(=O)N/N=C/c2sccc2C)cc(OC)c1OC,"inconclusive: 1.3 µM [cytotoxic, full curve, poor fit]",–
COc1ccc(Nc2nc(-c3ccc(OC)cc3)cs2)cc1,"inconclusive: 29.1 µM [rising, single point]",–
COc1ccc(S(=O)(=O)N(CC(=O)NCc2ccncc2)Cc2ccccc2)cc1,"inconclusive: 29.1 µM [cytotoxic, single point]",–
COc1ccc(CCNC(=O)CSc2cn(CCNC(=O)c3c(F)cccc3F)c3ccccc23)cc1OC,inactive,–
CC(=O)Nc1ccc(NS(=O)(=O)c2c(C(=O)N3CCCCCC3)c(C)n(C)c2C)cc1,inactive,–
CN(C)CCCN(C(=O)c1ccc2c(c1)CCCC2)c1nc2ccc(Cl)cc2s1,active: 10.3 µM,–
FC(F)(F)c1ccc(Cl)c(N/N=C/c2ccc(N3CCOCC3)s2)c1,inactive,–

# Compounds listed so far with an aryl methoxy group:
Compound,Potency,"activity change, negative = cytotoxicity"
COc1ccc(-c2noc(=O)n2Cc2cc(C)ccc2C)cc1,"inconclusive: 8.2 µM [cytotoxic, partial curve, poor fit]",–
COc1ccc(C(=O)CSc2cc(C)nc(SCC(=O)c3ccc(C)cc3)n2)cc1,inactive,–
COc1ccc(NC(=O)C(C)N(C)Cc2ccc3ccccc3c2)cc1 (centres undefined),inactive,–
COc1cc(NC(=O)c2ccc(C)cc2C)ccc1NC(=O)c1cc2ccccc2o1,inactive,–
CCOC(=O)C1[C@H]2C(=O)N(C(C)c3ccc(OC)cc3)C[C@]23C=C[C@H]1O3 (some centres undefined),"inconclusive: 16.4 µM [cytotoxic, single point]",–
COc1cc(C(=O)N/N=C/c2sccc2C)cc(OC)c1OC,"inconclusive: 1.3 µM [cytotoxic, full curve, poor fit]",–
COc1ccc(Nc2nc(-c3ccc(OC)cc3)cs2)cc1,"inconclusive: 29.1 µM [rising, single point]",–
COc1ccc(S(=O)(=O)N(CC(=O)NCc2ccncc2)Cc2ccccc2)cc1,"inconclusive: 29.1 µM [cytotoxic, single point]",–
COc1ccc(CCNC(=O)CSc2cn(CCNC(=O)c3c(F)cccc3F)c3ccccc23)cc1OC,inactive,–

# Additional structures follow:

Compound,Potency,"activity change, negative = cytotoxicity"
COC(=O)c1ccccc1C(=O)N1CCCC(C(=O)c2cc(F)ccc2F)C1 (centres undefined),–,inconclusive: -51.1%
CCC(CC)NCC(O)COc1ccc(Br)cc1 (centres undefined),"inconclusive: 20.6 µM [cytotoxic, partial curve]",–
Cc1ccc(C(=O)OC(C(=O)O)C(OC(=O)c2ccc(C)cc2)C(=O)O)cc1 (centres undefined),"inconclusive: 16.4 µM [rising, single point]",–
O=C(Cc1coc2cc3c(cc12)CCC3)NCC1(N2CCCCC2)CCCCC1,"inconclusive: 20.6 µM [cytotoxic, partial curve, poor fit]",–
Cc1ccc(C(=O)COC(=O)CCC(=O)Nc2ccc(Oc3ccccc3)cc2)cc1,"inconclusive: 9.2 µM [rising, partial curve]",–
Cc1cccc(N2CCN(C(=O)c3ccccn3)CC2C)c1 (centres undefined),–,inconclusive: -11.3%
Cc1ccc(CSc2nnc(CS(=O)Cc3ccc(Cl)cc3Cl)n2C)cc1 (centres undefined),"inconclusive: 4.11 µM [cytotoxic, full curve]",–
COc1ccc(-c2nc3c(c(SCc4ccc(Br)cc4)n2)Cc2c(CO)cnc(C)c2O3)cc1,inactive,–
Cc1nnc(SCc2cccc3ccccc23)n(N)c1=O,"inconclusive: 29.1 µM [cytotoxic, single point]",–
COc1cc2c(C#N)c(N3CCCC3)nc(N)c2c(N)n1,"inconclusive: 7.31 µM [cytotoxic, partial curve]",–
Cn1c(-c2cnn(-c3ccccc3)c2-n2cccc2)n[nH]c1=S,"inconclusive: 18.4 µM [cytotoxic, single point]",–
c1ccc(-c2cn(CC3CCCCC3)nn2)cc1,"inconclusive: 23.1 µM [cytotoxic, single point]",–
Cc1cc(C)n(-c2ccc(C(=O)Nc3ccccn3)cc2)n1,"inconclusive: 18.4 µM [cytotoxic, partial curve, poor fit]",–
Cc1ccc(C)c(NC(=O)CN(C)C(=O)c2cc3ccccc3o2)c1,"inconclusive: 29.1 µM [cytotoxic, single point]",–
O=C(Nc1ccc(S(=O)(=O)N2CCOCC2)cc1)c1ccc(CN2CCc3ccccc3C2)cc1,active: 2.91 µM,–
O=C(O)C1CCC(N2C(=O)c3cccc([N+](=O)[O-])c3C2=O)CC1 (centres undefined),"inconclusive: 20.6 µM [rising, partial curve, poor fit]",–
COc1ccc2c(c1OC)C(=O)N1C2SC[C@H]1C(=O)NC1CC1 (some centres undefined),inactive,–
CCCCC(CC)CNC(=O)Cc1ccc(-n2c(=O)[nH]c3ccccc3c2=O)cc1 (centres undefined),inactive,–
COc1cc(C(C)=O)ccc1OCC(O)CN1CCN(S(=O)(=O)c2ccccc2)CC1 (centres undefined),"inconclusive: 16.4 µM [cytotoxic, partial curve, poor fit]",–
COc1ccc(N2CCN(S(=O)(=O)c3ccc(-c4coc(C)n4)cc3)CC2)cc1,inactive,–
CC(=O)N1c2ccc(S(=O)(=O)Nc3ccc(C)c(Cl)c3)cc2CC1C (centres undefined),"inconclusive: 0.0065 µM [cytotoxic, full curve, poor fit]",–
CCOC(=O)c1c(CN2CCOCC2)n(-c2ccccc2)c2ccc(O)cc12,"inconclusive: 5.17 µM [cytotoxic, partial curve, poor fit]",–
Cn1c(=O)c2cn(Cc3ccc(Cl)cc3)cc2n(C)c1=O,"inconclusive: 14.6 µM [cytotoxic, partial curve, poor fit]",–

# Grouped by structure, those above containing an NH in an aromatic ring
Compound,Potency,"activity change, negative = cytotoxicity"
Cn1c(-c2cnn(-c3ccccc3)c2-n2cccc2)n[nH]c1=S,"inconclusive: 18.4 µM [cytotoxic, single point]",–
CCCCC(CC)CNC(=O)Cc1ccc(-n2c(=O)[nH]c3ccccc3c2=O)cc1 (centres undefined),inactive,–

# (more compounds)

Compound,Potency,"activity change, negative = cytotoxicity"
CCCn1c(CCC(=O)O)ccc1-c1cccs1,"inconclusive: 13 µM [rising, partial curve, poor fit]",–
CCc1cccc(NC(=O)Cn2c3[n+](c4ccc(C(F)(F)F)cc42)CCCCC3)c1,"inconclusive: 29.1 µM [rising, single point]",–
COc1ccc(-c2cn3cccnc3n2)cc1NC(=O)c1cc(OC)c(OC)c(OC)c1,inactive,–
O=C(CNC1CCCCC1)Nc1cccc(C(F)(F)F)c1,inactive,–
O=C(c1cccc(F)c1)N1CCN(c2ccc([N+](=O)[O-])c(N3CCCCC3)c2)CC1,"inconclusive: 14.6 µM [cytotoxic, partial curve, poor fit]",–
Cc1ccc(C(=O)NC2CCN(S(=O)(=O)c3ccccc3)CC2)cc1,"inconclusive: 25.9 µM [cytotoxic, single point]",–
N#Cc1cn(-c2cccc(C(F)(F)F)c2)c(=O)[nH]c1=O,inactive,–
Cc1ccc(NC(=O)CN2C(=O)NC3(CCCc4ccccc43)C2=O)c([N+](=O)[O-])c1 (centres undefined),"inconclusive: 23.1 µM [rising, partial curve, poor fit]",–
CC1=C(C(=O)Nc2cccnc2)C(c2ccc(C)cc2)n2nc(SCc3ccccc3F)nc2N1 (centres undefined),inactive,–
Cc1noc(C)c1COc1ccccc1C(=O)NCCOc1ccccc1,"inconclusive: 2.06 µM [cytotoxic, partial curve]",–
CCC(=O)Oc1ccc(C(=O)Nc2ccc3c(c2)OCO3)cc1,"inconclusive: 5.8 µM [cytotoxic, partial curve]",–
Cc1ccc(C(=O)Nc2cccc(C(F)(F)F)c2)cc1NC(=O)c1ccno1,inactive,–
Cc1ccccc1C(=O)N1CCC(C(=O)Nc2ccc3c(c2)OCO3)CC1,–,inconclusive: -2.69%
CCOC(=O)N1C(=O)[C@](CC)(c2ccccc2)N1C(=O)OCC,inactive,–
Cc1ccc(S(=O)(=O)Nc2ccc(Cl)cc2C(=O)c2ccccc2)cc1,"inconclusive: 23.1 µM [cytotoxic, partial curve, poor fit]",–
COc1ccc(OC)c2[nH]c(=O)c(CCNC(=O)c3ccc(S(=O)(=O)N4CCCC4)cc3)cc12,active: 18.4 µM,–
Cc1ccc(CN(C)C2CCN(C)CC2)cc1,inactive,–
CN(CC(=O)Nc1ccc(F)cc1)C(=O)c1cccc(S(=O)(=O)N2CCN(c3ccccc3)CC2)c1,"inconclusive: 29.1 µM [cytotoxic, single point]",–
CCc1nc2c(OCc3ccccc3C)cccn2c1N(C)C(=O)C1CC1,"inconclusive: 3.66 µM [cytotoxic, full curve, poor fit]",–
Cc1ccc(C23CC4CC(CC(CN)(C4)C2)C3)cc1,"inconclusive: 29.1 µM [cytotoxic, single point]",–
CC(=O)N1CCN(c2ccccc2NC(=O)COc2cc(C)ccc2C(C)C)CC1,"inconclusive: 8.2 µM [cytotoxic, partial curve, poor fit]",–
COC(=O)c1cccc(NC(=S)N2CCCCC2)c1,inactive,–
COc1cccc(-c2cnc3c(NC=O)cc(-c4cc(C)c(O)c(C)c4)cn23)c1,"inconclusive: 16.4 µM [cytotoxic, partial curve, poor fit]",–

# From PubChem BioAssay AID1347076 (National Center for Advancing Translational Sciences (NCATS), 2019)
